The target in this test is Flag-FAF1 (Fas-associated factor 1, wild type), in HeLa cells (human) (UniProt Q9UNN5). The experiment in a line: affinity purification with mass spectrometry; anti-Flag immunoprecipitation from HeLa cells overexpressing Flag-FAF1; SDS-PAGE, silver staining; nano-UPLC-ESI-q-TOF tandem MS.

Chains of the proteins cited; added tags and fusions are not shown.
UniProt Q9UNN5: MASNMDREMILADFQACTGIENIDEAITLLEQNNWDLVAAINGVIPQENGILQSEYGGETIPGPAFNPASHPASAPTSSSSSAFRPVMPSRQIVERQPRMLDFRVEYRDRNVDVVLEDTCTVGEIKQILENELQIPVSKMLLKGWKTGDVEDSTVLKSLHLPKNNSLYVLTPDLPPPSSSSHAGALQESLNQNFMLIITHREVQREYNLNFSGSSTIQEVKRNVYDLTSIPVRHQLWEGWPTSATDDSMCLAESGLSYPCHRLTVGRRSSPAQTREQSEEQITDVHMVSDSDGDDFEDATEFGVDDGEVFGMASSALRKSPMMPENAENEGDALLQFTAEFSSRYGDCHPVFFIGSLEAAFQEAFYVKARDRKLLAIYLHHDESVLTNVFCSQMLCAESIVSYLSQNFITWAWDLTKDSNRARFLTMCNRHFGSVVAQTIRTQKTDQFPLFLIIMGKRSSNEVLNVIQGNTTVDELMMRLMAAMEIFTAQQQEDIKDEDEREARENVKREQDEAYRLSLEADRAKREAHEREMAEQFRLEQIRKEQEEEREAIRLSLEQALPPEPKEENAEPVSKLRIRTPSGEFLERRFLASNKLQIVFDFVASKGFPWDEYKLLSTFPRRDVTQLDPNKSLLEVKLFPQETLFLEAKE
UniProt O00410: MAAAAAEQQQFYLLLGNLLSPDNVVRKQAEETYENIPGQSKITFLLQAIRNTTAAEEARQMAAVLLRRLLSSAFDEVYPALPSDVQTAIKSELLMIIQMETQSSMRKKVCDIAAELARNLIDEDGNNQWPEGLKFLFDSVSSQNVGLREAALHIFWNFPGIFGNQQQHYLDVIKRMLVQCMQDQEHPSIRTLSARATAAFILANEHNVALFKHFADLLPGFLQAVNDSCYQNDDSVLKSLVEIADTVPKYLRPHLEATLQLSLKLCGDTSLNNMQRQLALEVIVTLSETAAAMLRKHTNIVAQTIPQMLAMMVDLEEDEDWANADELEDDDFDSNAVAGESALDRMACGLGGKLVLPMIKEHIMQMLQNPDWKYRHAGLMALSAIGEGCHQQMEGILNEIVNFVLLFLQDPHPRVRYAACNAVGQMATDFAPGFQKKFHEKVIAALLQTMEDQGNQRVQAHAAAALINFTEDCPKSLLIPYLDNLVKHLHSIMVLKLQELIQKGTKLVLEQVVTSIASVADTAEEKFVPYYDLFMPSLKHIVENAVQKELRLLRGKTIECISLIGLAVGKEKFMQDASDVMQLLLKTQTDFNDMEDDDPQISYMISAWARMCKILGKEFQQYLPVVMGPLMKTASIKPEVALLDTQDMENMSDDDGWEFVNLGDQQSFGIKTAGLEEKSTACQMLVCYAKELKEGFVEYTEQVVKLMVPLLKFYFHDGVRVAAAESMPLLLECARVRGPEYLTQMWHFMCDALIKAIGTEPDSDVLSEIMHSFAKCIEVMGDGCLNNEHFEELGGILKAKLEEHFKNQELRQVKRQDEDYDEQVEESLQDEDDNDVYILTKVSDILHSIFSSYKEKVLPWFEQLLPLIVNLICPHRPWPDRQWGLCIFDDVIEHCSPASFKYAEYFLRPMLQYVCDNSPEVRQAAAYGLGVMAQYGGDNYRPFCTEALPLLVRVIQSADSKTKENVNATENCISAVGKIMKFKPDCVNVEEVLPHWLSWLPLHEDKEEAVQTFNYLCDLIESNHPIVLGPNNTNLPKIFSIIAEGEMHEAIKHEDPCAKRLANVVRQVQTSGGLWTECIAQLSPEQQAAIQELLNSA

Here are results for one substance from publication PMC4800795.

Results are given in words; binding and its absence hold for the method and conditions named. Binding seen in cells or lysates may run through a third protein. A yes stands for co-enrichment or nearness to the bait. Other partners may have been found.

“IPO5/importin-β3, endogenous in HeLa cells (from UniProt O00410 1-1097)”: the binding entry is “binds”.
